In publication PMC7819943, “Rice protein-binding microarrays: a tool to detect cis-acting elements near promoter regions in rice”:
Some of the results follow.

The chains behind the UniProt entries cited, without tags or fusion partners.
UniProt Q0JBA9, entry or part of it: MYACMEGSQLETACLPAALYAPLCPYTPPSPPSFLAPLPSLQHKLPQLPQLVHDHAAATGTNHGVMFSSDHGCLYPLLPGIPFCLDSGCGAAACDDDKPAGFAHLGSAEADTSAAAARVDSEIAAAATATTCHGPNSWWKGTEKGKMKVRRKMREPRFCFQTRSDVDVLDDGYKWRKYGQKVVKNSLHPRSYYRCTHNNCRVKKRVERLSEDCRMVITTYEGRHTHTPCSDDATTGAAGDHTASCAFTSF

target: OsWRKY34 (Oryza sativa, UniProt Q0JBA9 1-250); assay: protein-binding microarray (RPBM); PBS, 2% BSA, 51.3 ng/ul salmon testes DNA, 50 uM zinc acetate, 200 nM TF, 25 C, 1 h; high values mean tight binding; conditions: protein: recombinant; tags: N-terminal polyhistidine and DsRed monomer fusion (pET32a); label: CyDye5-dUTP incorporated in the synthesized complementary strand; 3' TTTTT single-stranded linker to array surface; dsDNA, one strand shown
Method in brief: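 Per-feature fluorescence intensity (arbitrary units), read on an Axon 4000B scanner, is the binding signal. Transcription factors carrying an N-terminal polyhistidine tag and DsRed fusion were expressed in E. coli BL21-CodonPlus and purified on Ni–NTA. A custom Agilent array, made double-stranded by primer extension with Cy5-dUTP and blocked with 2% BSA, was incubated with 200 nM protein in PBS, 2% BSA, salmon testes DNA and 50 µM zinc acetate at 25 °C for 1 h and then washed.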

| Sequence | binding signal |
| --- | --- |
| ATCCTTTTTTTTTAGCATGATGCAGCATATGCTTGACCTTCGGAGTCACCTAGTGCAG | 8130 fluorescence intensity (a.u.) |
| AAGCATATACTGCCCTTTGCAGTTTCTTCTCAGCCGTTCTCGGAGTCACCTAGTGCAG | 8280 fluorescence intensity (a.u.) |
| CTGGTTCTTGATTATTATTAGGATTAGTTTGTTCCTTTGTCGGAGTCACCTAGTGCAG | 8450 fluorescence intensity (a.u.) |
| TAGTTTTTTTTATTCTACCCTCAACTATCCTTGCACATCTCGGAGTCACCTAGTGCAG | 9690 fluorescence intensity (a.u.) |
| TTAATTCGTTTTTACCTTGACTATTTTTTCTTTCTTGTTGCGGAGTCACCTAGTGCAG | 8340 fluorescence intensity (a.u.) |
| TATTAGTGGTATATATCCCTATCAGTCATTCTGCTTGCTTCGGAGTCACCTAGTGCAG | 9260 fluorescence intensity (a.u.) |
| GCCACCAAATTCCCAACCCTTTTTCTGTTCAGATTCTTGGCGGAGTCACCTAGTGCAG | 8890 fluorescence intensity (a.u.) |
| CTCCACCACCGCTAGATTCGCTCACATCGCCGCCATTACTCGGAGTCACCTAGTGCAG | 9750 fluorescence intensity (a.u.) |
| TTGCTGACAGCTAGCTACACACTGCCTTTGTTATATTACCCGGAGTCACCTAGTGCAG | 8240 fluorescence intensity (a.u.) |
| CGTGGTGTAAATGTACGTATATCTGCTCTTTCGCTGTACGCGGAGTCACCTAGTGCAG | 8130 fluorescence intensity (a.u.) |
| GGCCCCACGTTACCCTTTCGCGCACACGTGTCCCCTATCACGGAGTCACCTAGTGCAG | 10200 fluorescence intensity (a.u.) |
| ACTGTCTATGTCTCAATTCATACTATTATATTCTATGCTCCGGAGTCACCTAGTGCAG | 9130 fluorescence intensity (a.u.) |
| GATTCACTATTGTGAGTTAAATCCTGTACTTTTTGCTGATCGGAGTCACCTAGTGCAG | 8320 fluorescence intensity (a.u.) |
| TGCACCATCCATTCCTCATCGGATGCCTTCACGCCGCCACCGGAGTCACCTAGTGCAG | 8580 fluorescence intensity (a.u.) |
| ATATCTTGTTTATGCAGTTCAGCCTTTCAGGGGTTATCCTCGGAGTCACCTAGTGCAG | 9060 fluorescence intensity (a.u.) |
| ACGTTCAATCCTCAACATGCTCACAATTTCTTCTTAAAAACGGAGTCACCTAGTGCAG | 8510 fluorescence intensity (a.u.) |
| TCTAAATTGTATTTCTATATAGACTCTGCATTTTCTTTTTCGGAGTCACCTAGTGCAG | 11600 fluorescence intensity (a.u.) |
| GGGTTGTGGAGTGTAGTTTCTATTGTGATGTCTTATTGACCGGAGTCACCTAGTGCAG | 11200 fluorescence intensity (a.u.) |
| AACTCTCCAGTCTCCACCCACCTCACTCCACAGTCCACACCGGAGTCACCTAGTGCAG | 9640 fluorescence intensity (a.u.) |
| CCGTCTGCTACGTTAGCTTGCCGCCCTCCGTTAGGCGGCACGGAGTCACCTAGTGCAG | 9150 fluorescence intensity (a.u.) |
| CGCCGCCCTCGACTGCCGCTCCCGTCGTCCCAACCCACCGCGGAGTCACCTAGTGCAG | 8790 fluorescence intensity (a.u.) |
| CTGACTGGGTGCAGCATATGCTTTTTCTAACGTTGGGCGTCGGAGTCACCTAGTGCAG | 8670 fluorescence intensity (a.u.) |
| CACCATCTCACACACACCACGCCACAATATTCTTTGCATCCGGAGTCACCTAGTGCAG | 9620 fluorescence intensity (a.u.) |
| GCCACAGCGCGCGCGACCACGTCTCGGTCTCTCACGCCGTCGGAGTCACCTAGTGCAG | 8600 fluorescence intensity (a.u.) |
| ATGGGTATGTTTAATTTGCTGGAGTTTTAGATATTCCAGACGGAGTCACCTAGTGCAG | 9800 fluorescence intensity (a.u.) |
| TTTTACCCCGTTTTCGCTAATTAATTCTGTATTTATGGCACGGAGTCACCTAGTGCAG | 8120 fluorescence intensity (a.u.) |
| TCTGATCCCACCTGTCATACACGTATTGTGTCTTGGAGTCCGGAGTCACCTAGTGCAG | 10600 fluorescence intensity (a.u.) |

10 neighbouring entries from above:

| Sequence | binding signal |
| --- | --- |
| CTCCACCACCGCTAGATTCGCTCACATCGCCGCCATTACTCGGAGTCACCTAGTGCAG | 9750 fluorescence intensity (a.u.) |
| TTGCTGACAGCTAGCTACACACTGCCTTTGTTATATTACCCGGAGTCACCTAGTGCAG | 8240 fluorescence intensity (a.u.) |
| CGTGGTGTAAATGTACGTATATCTGCTCTTTCGCTGTACGCGGAGTCACCTAGTGCAG | 8130 fluorescence intensity (a.u.) |
| GGCCCCACGTTACCCTTTCGCGCACACGTGTCCCCTATCACGGAGTCACCTAGTGCAG | 10200 fluorescence intensity (a.u.) |
| ACTGTCTATGTCTCAATTCATACTATTATATTCTATGCTCCGGAGTCACCTAGTGCAG | 9130 fluorescence intensity (a.u.) |
| GATTCACTATTGTGAGTTAAATCCTGTACTTTTTGCTGATCGGAGTCACCTAGTGCAG | 8320 fluorescence intensity (a.u.) |
| TGCACCATCCATTCCTCATCGGATGCCTTCACGCCGCCACCGGAGTCACCTAGTGCAG | 8580 fluorescence intensity (a.u.) |
| ATATCTTGTTTATGCAGTTCAGCCTTTCAGGGGTTATCCTCGGAGTCACCTAGTGCAG | 9060 fluorescence intensity (a.u.) |
| ACGTTCAATCCTCAACATGCTCACAATTTCTTCTTAAAAACGGAGTCACCTAGTGCAG | 8510 fluorescence intensity (a.u.) |
| TCTAAATTGTATTTCTATATAGACTCTGCATTTTCTTTTTCGGAGTCACCTAGTGCAG | 11600 fluorescence intensity (a.u.) |

Next part.

| Sequence | binding signal |
| --- | --- |
| TTCCTCGTGATTCGTGAACTATTCTGCCCATGTTTTCTATCGGAGTCACCTAGTGCAG | 9440 fluorescence intensity (a.u.) |
| TCTCCATTCTCATTCCCAATCCATCTACATTTCCTAAGTACGGAGTCACCTAGTGCAG | 9160 fluorescence intensity (a.u.) |
| ATTTAGCTACACTATGCAGTCTGGCCCATTTTCTTTCGCCCGGAGTCACCTAGTGCAG | 11200 fluorescence intensity (a.u.) |
| CGGGTGGGTCGTAAAGGAGTACAGCGACGGTGTTTGACAGCGGAGTCACCTAGTGCAG | 8320 fluorescence intensity (a.u.) |
| AGTTTCTTTTTTTTGGTCCTTTTTAGCGTGTTGTTAATCTCGGAGTCACCTAGTGCAG | 13100 fluorescence intensity (a.u.) |
| TGGGGTGGTGTGTTGATGCGGCGGGATTCGAGCCCTGGCCCGGAGTCACCTAGTGCAG | 8560 fluorescence intensity (a.u.) |
| GCCCGTAGCATACCACCCCATCATCGCTACCGCCGATTTCCGGAGTCACCTAGTGCAG | 9610 fluorescence intensity (a.u.) |
| GCCGCCTCCTAGTGCTTCCTCTATCGCCCATCATTTCCGTCGGAGTCACCTAGTGCAG | 8400 fluorescence intensity (a.u.) |
| GATCCGTTTTATGTGTTTGGGGAGAGAGTTTCCCAACTTCCGGAGTCACCTAGTGCAG | 8880 fluorescence intensity (a.u.) |
| ACCATCTTATTTAACGTAAAATATTTAATTTTCATTTTTACGGAGTCACCTAGTGCAG | 8480 fluorescence intensity (a.u.) |
| CATTCTGTACATCCAGTGTCTCTCAGCATATCCTTCAGAACGGAGTCACCTAGTGCAG | 8420 fluorescence intensity (a.u.) |
| AATCACGTGATTATTTTAGCAACCTCATTTTTTTTCTTTTCGGAGTCACCTAGTGCAG | 8930 fluorescence intensity (a.u.) |
| GCCTTCGATTCTGCCCCACCGCGCCCACTGCTAACTCCGACGGAGTCACCTAGTGCAG | 10700 fluorescence intensity (a.u.) |
| GCTTTGGTCGTGGCGGTGGTGGCGCATTCGGTGGTGGCGCCGGAGTCACCTAGTGCAG | 12500 fluorescence intensity (a.u.) |
| TACACACTACATACTCCATCGTTCGTTCTTCAGAGAGTACCGGAGTCACCTAGTGCAG | 8320 fluorescence intensity (a.u.) |
| GCCTCGTCCACTCCACCACGCCGCCGAAAGCCGCAACTCTCGGAGTCACCTAGTGCAG | 9580 fluorescence intensity (a.u.) |
| ACATCAAAACCACCATAAGCTCTATGTTGCACTTTTAACACGGAGTCACCTAGTGCAG | 8180 fluorescence intensity (a.u.) |
| CCATCACCATCTGTTCTAGTACTGTATTTGGTTCAGAGAACGGAGTCACCTAGTGCAG | 8940 fluorescence intensity (a.u.) |
| GATTGGCGTCCGCTTCTATTCATAGGTTTGCCGTCGGACGCGGAGTCACCTAGTGCAG | 8360 fluorescence intensity (a.u.) |
| CTGGCGCGCAGAACCGTTTGTTTCCGCCCTCTCTTTTTTCCGGAGTCACCTAGTGCAG | 8670 fluorescence intensity (a.u.) |
| GAGACTTTGCACGCTTAAGCCTTAAGCTTCTACTACCATTCGGAGTCACCTAGTGCAG | 10100 fluorescence intensity (a.u.) |
| TAGTATATACATGGGTGTTTGGGAGAGAGGGGCTAAACTTCGGAGTCACCTAGTGCAG | 9540 fluorescence intensity (a.u.) |
| ACCCTGCCATTACGCATCTCAACACACCATTAGTCCAGTCCGGAGTCACCTAGTGCAG | 9540 fluorescence intensity (a.u.) |
| CCCGCTCGCTCTCGTGCTGTCCGCCGACCTCAGCTCGCTCCGGAGTCACCTAGTGCAG | 10000 fluorescence intensity (a.u.) |
| CCTACGACTCATTACATCCACACGCAAGCAAAATCTCACTCGGAGTCACCTAGTGCAG | 8260 fluorescence intensity (a.u.) |
| CGCCTCGCCGTCTCAGTGTCGACAGTGTCCCCTCCCCTCACGGAGTCACCTAGTGCAG | 9070 fluorescence intensity (a.u.) |
| GTCCACTCCCCGTTGATTTGATTTGTCTCGTAGCTGCAGCCGGAGTCACCTAGTGCAG | 8380 fluorescence intensity (a.u.) |
